# Reference: PubChem BioAssay AID901 (National Center for Advancing Translational Sciences (NCATS), 2007)
# The other results are listed elsewhere or left out. The main result of the screen is listed elsewhere. These columns were measured beside it and carry no call. The list favours compounds with an active or inconclusive main result. Words in brackets tell the shape of the fitted curve; partial curves, single points and poor fits give uncertain potencies.
# Assay: qHTS Assay for Identifying the Cell-Membrane Permeable IMPase Inhibitors
# Conditions: CHO-M1 cells, IP1 accumulation, HTRF TR-FRET ratio; measured here: donor channel 620 nm AC50
row,SMILES,AC50
1,CCOc1ccc(Nc2nc3ccccc3c3nnc(CC)n23)cc1,"6310 nM [falling, single point]"
2,CCN(CC)C(=O)c1sc(NC(=O)C2c3ccccc3Oc3ccccc32)c(C(=O)OC(C)C)c1C,"5620 nM [falling, single point]"
3,Cn1c(-c2ccc(N)cc2)nc2ccccc21,"126 nM [falling, full curve, poor fit]"
4,COc1ccccc1NC(=O)CSc1nnnn1-c1ccc(C)cc1,"794 nM [falling, full curve]"
5,Cc1nn2cc(-c3ccccc3)nc2[nH]c1=O,"398 nM [falling, partial curve, poor fit]"
6,O=C(Nc1ccccc1)c1sc(N2CCOCC2)nc1-c1ccccc1,"25100 nM [rising, partial curve]"
7,CNC(=O)c1[nH]cnc1C(=O)Nc1ccccc1C,"100 nM [rising, partial curve]"
8,COc1ccc(/C=C/c2ccncc2)cc1OC,"6310 nM [falling, single point]"
9,Cc1cccc(Nc2c(-c3ccsc3)nc3nc(C)cc(C)n23)c1,"12600 nM [rising, partial curve]"
10,COCCNC(=O)CSc1nc(-c2ccccc2)cs1,"100 nM [rising, full curve]"
11,CCc1ccc(NC(=O)CCNS(=O)(=O)c2cccc3nsnc23)cc1,"316 nM [falling, full curve, poor fit]"
12,O=C(NCCc1ccccc1)c1cc(-c2ccco2)on1,"12600 nM [rising, single point]"
13,OCCCCCNc1ncnc2ccccc12,"25100 nM [rising, single point]"
14,Cc1ccc(C(=O)N/N=C\c2c(C)nn(-c3ccccc3)c2Cl)cn1,"14100 nM [rising, single point]"
15,O=C(Nc1c(C(=O)N2CCCC2)cnn1-c1ccccc1)c1cccc(F)c1,"31600 nM [falling, single point]"
16,Cc1ccc(-n2nc3c(=S)[nH]nc(C)c3c2C)cc1,"15800 nM [rising, partial curve]"
17,Cc1ccc(C(=O)COC(=O)c2cc(-c3ccc(Cl)cc3)nc3ccccc23)cc1,"7080 nM [rising, partial curve]"
18,Cc1c(N2C(=O)CS/C2=N\N=C\c2ccccc2O)c(=O)n(-c2ccccc2)n1C,"794 nM [falling, full curve]"
19,C=CCn1c(SCc2ccccc2)nc2scc(-c3ccc(C)o3)c2c1=O,"25100 nM [rising, single point]"
20,COc1ccc(NC(=O)CN2CCC3(O)CCCCC3C2c2ccccc2OC)cc1 (stereo unspecified),"2510 nM [falling, partial curve]"
21,N/C(Cc1ccc(Cl)cc1)=N\OC(=O)c1cccc2ccccc12,"15.8 nM [rising, full curve, poor fit]"
22,CCn1c2ccc(/C(C)=N\O)cc2c2cc(/C(C)=N\O)ccc21,"3980 nM [rising, partial curve]"

row,SMILES,AC50
1,O=C(Nc1ccc(O)cc1)c1cccc(S(=O)(=O)N2CCOCC2)c1,"112 nM [falling, full curve, poor fit]"
2,CC(=O)Nc1ccc(S(=O)(=O)NC(CC(=O)N(C)Cc2ccccc2)C(C)C)cc1 (stereo unspecified),"3980 nM [rising, full curve]"
3,O=C(O)c1ccc(Cl)cc1NC(=O)C1CCCO1 (stereo unspecified),"158 nM [falling, full curve, poor fit]"
4,OCCNc1nc(N2CCCC2)nc(N2CCCC2)n1,"891 nM [falling, full curve, poor fit]"
5,COc1ccc(-c2nn3c(-c4ccc(C)cc4)nnc3c3ccccc23)cc1,"316 nM [falling, partial curve]"
6,O=C(Nc1ccc(OC(F)(F)F)cc1)c1cnc2n(c1=O)CCS2,"31600 nM [rising, single point]"
7,O=C(C1CCN(c2ccc(N3CCOCC3)nn2)CC1)N1CCc2ccccc2C1,"63.1 nM [rising, partial curve, poor fit]"
8,c1ccc2[nH]c(NCCN3CCOCC3)nc2c1,"1000 nM [falling, full curve, poor fit]"
9,c1ccc(CSc2nnc(-c3cccnc3)o2)cc1,"1000 nM [falling, single point]"
10,COc1ccc2nc3sc(C(=O)Nc4cc(Cl)c(OC)cc4OC)cc3cc2c1,"35500 nM [rising, single point]"
11,COC(=O)C(C)N(c1ccc(C)cc1)S(=O)(=O)c1c(C)[nH]c(=O)[nH]c1=O (stereo unspecified),"63.1 nM [falling, full curve, poor fit]"
12,CCOC(=O)c1c(NC(=O)CNCCOC)sc2c1CCCC2,"5.01 nM [falling, full curve, poor fit]"
13,Nc1cc([N+](=O)[O-])ccc1O,"22400 nM [falling, partial curve]"
14,CCOc1ccc(NC(=O)c2ccccc2OC)cc1,"501 nM [rising, partial curve, poor fit]"
15,CC(C)CCn1c(NCCN(C)C)nc2c1c(=O)[nH]c(=O)n2C,"20 nM [rising, full curve, poor fit]"
16,CCCn1nc2cc(C(=O)NC3CCc4ccccc43)ccc2c1OCC (stereo unspecified),"25.1 nM [falling, partial curve, poor fit]"
17,COC(=O)c1nnn(-c2nonc2N)c1CSc1nc2ccccc2s1,"6310 nM [rising, single point]"
18,CCCCOC(=O)CCn1c(=S)oc2ccccc21,"22.4 nM [falling, full curve]"
19,O=C(Cn1cnc2ccccc21)N/N=C/c1ccco1,"12600 nM [falling, partial curve]"
20,CN1C(=O)CC(c2ccco2)Sc2ccccc21 (stereo unspecified),"3160 nM [rising, partial curve, poor fit]"
21,Cc1ccc(-c2[nH]c(-c3ccccc3)nc2SCC(=O)NCC2CCCO2)cc1 (stereo unspecified),"1780 nM [falling, full curve, poor fit]"
22,COCCOC(=O)C1=C(C)NC2=C(C(=O)CC(c3cccs3)C2)C1c1ccsc1 (stereo unspecified),"31600 nM [falling, single point]"

# Taken from above.
# AC50, `CC(C)CCn1c(NCCN(C)C)nc2c1c(=O)[nH]c(=O)n2C` is entered as 20 nM [rising, full curve, poor fit]
# AC50, `O=C(C1CCN(c2ccc(N3CCOCC3)nn2)CC1)N1CCc2ccccc2C1` is entered as 63.1 nM [rising, partial curve, poor fit]

# Remaining list, next part:

row,SMILES,AC50
1,CN(Cc1ccccc1)C(=O)Nc1ccccc1,"5620 nM [rising, single point]"
2,COc1ccc(N(CC(=O)N2CCc3ccccc32)S(=O)(=O)c2c(C)n[nH]c2C)cc1,"794 nM [falling, full curve, poor fit]"
3,Cc1ccc(SCc2[nH]nc3c2C2(C(=O)Nc4ccc([N+](=O)[O-])cc42)C(C#N)=C(N)O3)cc1 (stereo unspecified),"79.4 nM [falling, full curve]"
4,CC(=O)Nc1ccc(C(=O)Cn2nnc3ccccc3c2=O)cc1,"25100 nM [falling, single point]"
5,Cc1ccc(Cl)cc1NC1=NC(=S)N(C(C)C)C12CCCCC2,"631 nM [falling, partial curve, poor fit]"
6,CNC(=O)c1cccn1-c1ccsc1C(=O)OC,"6310 nM [rising, full curve, poor fit]"
7,Cc1ccc(Cl)cc1NC(=O)CC1NCCNC1=O (stereo unspecified),"3160 nM [falling, partial curve]"
8,COc1ccccc1CC(=O)NCc1ccc2c(c1)OCO2,"3160 nM [falling, single point]"
9,COc1ccc2cc3cc(C(=O)N4CCN(Cc5ccc6c(c5)OCO6)CC4)oc3nc2c1,"5.01 nM [falling, full curve, poor fit]"
10,COC(=O)c1cc(Cl)c(NS(=O)(=O)c2ccccc2)cc1OC,"35500 nM [falling, single point]"
11,C=C(C)COc1ccc(-c2nc(N)nc(C)c2Oc2ccccc2OC)c(O)c1,"3980 nM [falling, partial curve, poor fit]"
12,Cc1cccc(-c2nnc(SCC(=O)NCc3ccc4c(c3)OCO4)n2C)c1,"2510 nM [rising, full curve]"
13,CCc1c(C)nc(N2CCOCC2)[nH]c1=O,"1260 nM [falling, single point]"
14,CC(C)Oc1ccc(/C(O)=C2/C(=O)C(=O)N(Cc3cccnc3)C2c2ccco2)cc1 (stereo unspecified),"158 nM [falling, single point]"
15,O=C(CSc1nc(-c2ccc(F)cc2)[nH]c1-c1ccccc1)Nc1ccccc1,"6310 nM [falling, partial curve, poor fit]"
16,COc1ccc(/C=N\NS(=O)(=O)c2ccc(Cl)cc2)cc1COc1ccccc1[N+](=O)[O-],"251 nM [falling, full curve, poor fit]"
17,Cn1cnnc1SCC(=O)Nc1sccc1C#N,"251 nM [falling, full curve]"
18,COc1cccc(-c2nn(C)c3sc(C(=O)Nc4ccc5c(c4)OCCO5)cc23)c1,"4470 nM [falling, full curve]"
19,COc1ccc(-n2c(C)cc(C(=O)Cn3c(NCCO)nc4ccccc43)c2C)cc1,"10 nM [rising, full curve, poor fit]"
20,C[C@@H]1O[C@@H](OC[C@H]2O[C@@H](Oc3c(-c4cccc(O)c4O)oc4cc(O)cc(O)c4c3=O)[C@H](O)[C@@H](O)[C@@H]2O)[C@H](O)[C@H](O)[C@H]1O,"15800 nM [falling, partial curve, poor fit]"
21,COC(=O)CSc1nc(-c2ccccc2)c2c(c1C#N)CCCC2,"31600 nM [falling, single point]"
22,CCN(CC)C(=O)c1cc(-c2ccc(Br)cc2)on1,"6310 nM [falling, full curve, poor fit]"
